Results published in patent US11046991B2, “Rapid preconcentration of viable bacteria using magnetic ionic liquid for PCR amplification and culture-based diagnostics” (priority 2017, dated 2021).
Some entries share one result that the patent states for a list of compounds. For at least one compound, name, drawing or mass did not settle the structure.

Experiment: Thermal stability, MIL film in GC capillary with flame ionization detection
Type: physicochemical
Procedure: The thermal stability of all exemplary MILs was tested by monitoring the thermal volatilization/decomposition of the MIL when the MIL was used as a stationary phase in gas chromatography. To achieve this, an approximate 0.25-0.28 μm film of IL/MIL was immobilized on the inner wall of a fused silica capillary. The IL/MIL coated capillary was then heated slowly in a GC oven and an ultra-sensitive flame ionization detector (FID) was used to detect any volatilization/decomposition of the IL/MIL. These tests were run using a temperature program starting at 40° C. and increased at 1° C./min to 350° C. on an Agilent 6850 gas chromatograph with a flame ionization detector (Santa Clara, Calif., USA). The [P66614^+] [Cl^−] IL was also coated under the same conditions and was used as a reference.

With `CCCCCCCCCCCCCC[P+](CCCCCC)(CCCCCC)CCCCCC.O=C(C=C([O-])C(F)(F)F)C(F)(F)F.O=C(C=C([O-])C(F)(F)F)C(F)(F)F.O=C(C=C([O-])C(F)(F)F)C(F)(F)F.[Ni+2]` [MIL 3, [P66614^+] tris(hexafluoroacetylaceto)nickelate(II)] the “more rapid decomposition of the MIL occurring above” value was “above 215 °C”.
